# Record: PubChem BioAssay AID1259425 (University of Nebraska Medical Center, 2018)
# Aim: 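Compare each knockdown with KSR1 silencing using changes in marker transcripts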 (primary screen)
# Cells: HCT116 human colon cancer cells
# Reagent: siRNA pool against human genes, 50 nM siRNA
# Detection: 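After 50 nM siRNA pool, branched-DNA assay measures six marker transcripts per well, minus blank, normalised to the geometric mean of two housekeeping transcripts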
# Direction: BNIP3L mRNA: higher = more BNIP3L transcript after knockdown; NDRG1 mRNA: higher = more NDRG1 transcript after knockdown
# The deposit covers about 14,000 reagents; shown is a random part of them. Further read-outs or replicates are left out here. Not given: the time to read-out.
target gene,"BNIP3L mRNA, set 1","NDRG1 mRNA, set 1"
OR51E1 (GeneID 143503),0.249,0.175
LMBRD1 (GeneID 55788),0.262,0.237
TCTN3 (GeneID 26123),0.0708,0.19
KRT85 (GeneID 3891),0.15,0.188
TSR1 (GeneID 55720),0.134,0.252
NECTIN3 (GeneID 25945),0.0923,0.0909
FBXO11 (GeneID 80204),0.114,0.128
PLCD1 (GeneID 5333),0.106,0.188
LCK (GeneID 3932),0.263,0.103
UBIAD1 (GeneID 29914),0.117,0.537
ALOX12 (GeneID 239),0.0843,0.123
LBX1 (GeneID 10660),0.0824,0.418
ZNF442 (GeneID 79973),0.227,0.471
ARFIP1 (GeneID 27236),0.0703,0.192
APBB2 (GeneID 323),0.134,0.0686
SIT1 (GeneID 27240),0.101,0.443
ALDH3B1 (GeneID 221),0.111,0.46
PLSCR3 (GeneID 57048),0.125,0.0525
COL5A3 (GeneID 50509),0.0684,0.462
DZANK1 (GeneID 55184),0.14,0.193
DARS2 (GeneID 55157),0.0606,0.0955
CCT2 (GeneID 10576),0.173,1.27
PRPS2 (GeneID 5634),0.0962,0.188
PARP10 (GeneID 84875),0.2,0.0999
DGKE (GeneID 8526),0.15,0.0532
SLA (GeneID 6503),0.094,0.227
WFDC2 (GeneID 10406),0.132,0.112
CACNA1F (GeneID 778),0.194,0.146
SFTPC (GeneID 6440),0.081,0.0777
NUTM2F (GeneID 54754),0.0867,0.445
PQBP1 (GeneID 10084),0.134,0.131
ZNF692 (GeneID 55657),0.144,0.122
ZSWIM4 (GeneID 65249),0.226,0.805
PIP5K1C (GeneID 23396),0.073,0.171
KPNA4 (GeneID 3840),0.0353,0.124
ACOX1 (GeneID 51),0.0854,0.185
TRIM7 (GeneID 81786),0.0598,0.257
PAEP (GeneID 5047),0.139,0.338
SH3RF1 (GeneID 57630),0.0592,0.0727
PGK1 (GeneID 5230),0.153,0.0756
CLPS (GeneID 1208),0.0759,0.238
OR10H1 (GeneID 26539),0.101,0.202
TOM1 (GeneID 10043),0.0828,0.286
CNRIP1 (GeneID 25927),0.122,0.115
ARF5 (GeneID 381),0.0948,0.126
ITGA10 (GeneID 8515),0.0736,0.0976
PLD2 (GeneID 5338),0.258,1.51
SF3A2 (GeneID 8175),0.197,0.36
BTBD8 (GeneID 284697),0.0979,0.114
PEX14 (GeneID 5195),0.0883,0.16

Part of the list above, reformatted:
SH3RF1 (GeneID 57630)
- BNIP3L mRNA, set 1: 0.0592
- NDRG1 mRNA, set 1: 0.0727

PGK1 (GeneID 5230)
- BNIP3L mRNA, set 1: 0.153
- NDRG1 mRNA, set 1: 0.0756

CLPS (GeneID 1208)
- BNIP3L mRNA, set 1: 0.0759
- NDRG1 mRNA, set 1: 0.238

OR10H1 (GeneID 26539)
- BNIP3L mRNA, set 1: 0.101
- NDRG1 mRNA, set 1: 0.202
